Experimental data as given in patent publication US20210261642A1, “SOLUBILITY OF GLP-1 PEPTIDE” (Novo Nordisk A/S, priority 2017, published 2021).
This continues a long series; more values of the same kind are listed elsewhere.

Experiment: Assay (I): Determination of Solubility (96-well plate, pH 3.0-11.0, organic solvent 0-70% w/w, UV absorption at 280 nm)
Assay type: physicochemical
Conditions: Method 1 (evaporation)
Method: Assay (I): Determination of Solubility
96-Well Plate Preparation
96-well plates containing target peptide in a solid form were prepared in one of two ways:
Method 1 (evaporation): Addition of 100 μl stock solution of said peptide at a concentration of 4-6 mg/ml to each well of a 96-well half area plate (150 μl well size). Subsequently the solvent was evaporated by applying a vacuum until the solvent was completely removed.
Method 2 (precipitation): Addition of a certain volume of a stock solution of said peptide containing to each well of a 96-well half area plate followed by the addition of a certain volume of concentrated phosphoric acid to obtain a pH of 4.6 followed by addition of a certain volume of ethanol resulting in a final ethanol concentration of 20% v/v. Subsequently the plate was stored at 4° C. for 1 h and then centrifuged at 4,000 rpm for 20 min. Finally the supernatant was removed. The concentration of the stock solution was chosen in a way that the final amount of peptide after supernatant removal was >0.4 mg per well.
In both cases the stock solution was prepared by adding de-ionized water to a certain amount of powder of said peptide followed by a stepwise addition of small amounts of a concentrated sodium hydroxide solution until said peptide was completely in solution.
To determine solubility of a target peptide at different pH and organic solvent concentrations, two different buffer systems were used in independent experiments to cover the whole range from pH 3.0 to pH 11.0. Buffer system 1 covers pH 3.0-7.5 and buffer system 2 covers pH 7.5-11.0. For each buffer system 96 different solvent compositions were premixed in the following way: • 1. A low pH buffer (adjusted to either pH 3.0 or pH 7.5) and a high pH buffer (adjusted to either pH 7.5 or pH 11.0) were mixed at 8 different ratios to obtain values between pH 3.0 and pH 7.5 or pH 7.5 and pH 11.0, respectively. The total volume after mixing was 300 μl. • 2. 12 different amounts of organic solvent were then added to these buffers to obtain organic solvent (e.g. ethanol) concentrations between 0 and 70% w/w. • 3. Water was then added to obtain a total weight of 1.0 g of solvent in each well.
After preparing the 96 different solvent systems, 100 μl of each system was transferred to the 96-well plate containing the solid form of the target peptide (prepared as described in the section “96-well plate preparation”). The plate was then stored at a given temperature (between 5° C. and 70° C.) for a given time on a rotating shaker set to 400 rpm. At regular time intervals the plate was centrifuged (4,000 rpm for 10 min) and a 10 μl sample was taken from each well. The samples were then analysed by UV absorption at 280 nm for peptide quantification. Peptide concentration results are given as UV absorption at 280 nm of the sample subtracted UV absorption at 280 nm of a well comprising 10 μl water.
The buffers used were as follows: • Buffer system 1 (for the pH range from pH 3.0-7.5)
• Buffer system 2 (for the pH ranae from pH 7.5-11.0)
Solubility of liraglutide was determined using Assay (I) described herein. Liraglutide was prepared using Method 1 (evaporation) or Method 2 (precipitation) as described in subsection “96-well plate preparation”.

Peptide concentration after 5 min (DMF 12.7% w/w, pH 9.5, RT): 2.3 mg/mL
Peptide concentration after 180 min (DMF 12.7% w/w, pH 9.5, RT): >4.0 mg/mL
Peptide concentration after 5 min (DMF 12.7% w/w, pH 10.0, RT): 2.3 mg/mL
Peptide concentration after 180 min (DMF 12.7% w/w, pH 10.0, RT): >4.0 mg/mL
Peptide concentration after 5 min (DMF 12.7% w/w, pH 10.5, RT): 2.7 mg/mL
Peptide concentration after 180 min (DMF 12.7% w/w, pH 10.5, RT): >4.0 mg/mL
Peptide concentration after 5 min (DMF 12.7% w/w, pH 11.0, RT): 1.7 mg/mL
Peptide concentration after 180 min (DMF 12.7% w/w, pH 11.0, RT): >4.0 mg/mL
Peptide concentration after 5 min (DMF 19.1% w/w, pH 3.1, RT): 0.2 mg/mL
Peptide concentration after 180 min (DMF 19.1% w/w, pH 3.1, RT): 0.4 mg/mL
Peptide concentration after 24 h (DMF 19.1% w/w, pH 3.1, RT): 1.3 mg/mL
Peptide concentration after 5 min (DMF 19.1% w/w, pH 4.8, RT): 0.2 mg/mL
Peptide concentration after 180 min (DMF 19.1% w/w, pH 4.8, RT): 0.5 mg/mL
Peptide concentration after 24 h (DMF 19.1% w/w, pH 4.8, RT): 0.3 mg/mL
Peptide concentration after 5 min (DMF 19.1% w/w, pH 5.8, RT): 0.3 mg/mL
Peptide concentration after 180 min (DMF 19.1% w/w, pH 5.8, RT): 2.6 mg/mL
Peptide concentration after 24 h (DMF 19.1% w/w, pH 5.8, RT): 1.2 mg/mL
Peptide concentration after 5 min (DMF 19.1% w/w, pH 6.3, RT): 0.9 mg/mL
Peptide concentration after 180 min (DMF 19.1% w/w, pH 6.3, RT): 2.0 mg/mL
Peptide concentration after 24 h (DMF 19.1% w/w, pH 6.3, RT): >4.0 mg/mL
Peptide concentration after 5 min (DMF 19.1% w/w, pH 6.7, RT): 0.8 mg/mL
Peptide concentration after 180 min (DMF 19.1% w/w, pH 6.7, RT): 1.3 mg/mL
Peptide concentration after 24 h (DMF 19.1% w/w, pH 6.7, RT): 2.1 mg/mL
Peptide concentration after 5 min (DMF 19.1% w/w, pH 6.9, RT): 1.0 mg/mL
Peptide concentration after 180 min (DMF 19.1% w/w, pH 6.9, RT): 2.8 mg/mL
Peptide concentration after 24 h (DMF 19.1% w/w, pH 6.9, RT): >4.0 mg/mL
Peptide concentration after 5 min (DMF 19.1% w/w, pH 7.2, RT): 0.7 mg/mL
Peptide concentration after 180 min (DMF 19.1% w/w, pH 7.2, RT): 2.3 mg/mL
Peptide concentration after 24 h (DMF 19.1% w/w, pH 7.2, RT): >4.0 mg/mL
Peptide concentration after 5 min (DMF 19.1% w/w, pH 7.5, RT): 2.3 mg/mL
Peptide concentration after 180 min (DMF 19.1% w/w, pH 7.5, RT): >4.0 mg/mL
Peptide concentration after 5 min (DMF 19.1% w/w, pH 8.0, RT): 1.4 mg/mL
Peptide concentration after 180 min (DMF 19.1% w/w, pH 8.0, RT): >4.0 mg/mL
Peptide concentration after 5 min (DMF 19.1% w/w, pH 8.5, RT): 1.8 mg/mL
Peptide concentration after 180 min (DMF 19.1% w/w, pH 8.5, RT): >4.0 mg/mL
Peptide concentration after 5 min (DMF 19.1% w/w, pH 9.0, RT): 1.9 mg/mL
Peptide concentration after 180 min (DMF 19.1% w/w, pH 9.0, RT): >4.0 mg/mL
Peptide concentration after 5 min (DMF 19.1% w/w, pH 9.5, RT): 2.6 mg/mL
Peptide concentration after 180 min (DMF 19.1% w/w, pH 9.5, RT): >4.0 mg/mL
Peptide concentration after 5 min (DMF 19.1% w/w, pH 10.0, RT): 2.4 mg/mL
Peptide concentration after 180 min (DMF 19.1% w/w, pH 10.0, RT): >4.0 mg/mL
Peptide concentration after 5 min (DMF 19.1% w/w, pH 10.5, RT): 2.3 mg/mL
Peptide concentration after 180 min (DMF 19.1% w/w, pH 10.5, RT): >4.0 mg/mL
Peptide concentration after 5 min (DMF 19.1% w/w, pH 11.0, RT): 1.5 mg/mL
Peptide concentration after 180 min (DMF 19.1% w/w, pH 11.0, RT): >4.0 mg/mL
Peptide concentration after 5 min (DMF 25.5% w/w, pH 3.1, RT): 0.2 mg/mL
Peptide concentration after 180 min (DMF 25.5% w/w, pH 3.1, RT): 0.3 mg/mL
Peptide concentration after 24 h (DMF 25.5% w/w, pH 3.1, RT): 1.0 mg/mL
Peptide concentration after 5 min (DMF 25.5% w/w, pH 4.8, RT): 0.2 mg/mL
Peptide concentration after 180 min (DMF 25.5% w/w, pH 4.8, RT): 0.3 mg/mL
Peptide concentration after 24 h (DMF 25.5% w/w, pH 4.8, RT): 0.2 mg/mL
Peptide concentration after 5 min (DMF 25.5% w/w, pH 5.8, RT): 0.4 mg/mL
Peptide concentration after 180 min (DMF 25.5% w/w, pH 5.8, RT): 2.1 mg/mL
Peptide concentration after 24 h (DMF 25.5% w/w, pH 5.8, RT): 1.3 mg/mL
Peptide concentration after 5 min (DMF 25.5% w/w, pH 6.3, RT): 0.7 mg/mL
Peptide concentration after 180 min (DMF 25.5% w/w, pH 6.3, RT): 1.5 mg/mL
Peptide concentration after 24 h (DMF 25.5% w/w, pH 6.3, RT): >4.0 mg/mL
Peptide concentration after 5 min (DMF 25.5% w/w, pH 6.7, RT): 0.7 mg/mL
Peptide concentration after 180 min (DMF 25.5% w/w, pH 6.7, RT): 1.8 mg/mL
Peptide concentration after 24 h (DMF 25.5% w/w, pH 6.7, RT): 2.7 mg/mL
Peptide concentration after 5 min (DMF 25.5% w/w, pH 6.9, RT): 0.9 mg/mL
Peptide concentration after 180 min (DMF 25.5% w/w, pH 6.9, RT): 2.2 mg/mL
Peptide concentration after 24 h (DMF 25.5% w/w, pH 6.9, RT): >4.0 mg/mL
Peptide concentration after 5 min (DMF 25.5% w/w, pH 7.2, RT): 0.4 mg/mL
Peptide concentration after 180 min (DMF 25.5% w/w, pH 7.2, RT): 1.7 mg/mL
Peptide concentration after 24 h (DMF 25.5% w/w, pH 7.2, RT): >4.0 mg/mL
Peptide concentration after 5 min (DMF 25.5% w/w, pH 7.5, RT): 2.7 mg/mL
Peptide concentration after 180 min (DMF 25.5% w/w, pH 7.5, RT): >4.0 mg/mL
Peptide concentration after 5 min (DMF 25.5% w/w, pH 8.0, RT): 1.7 mg/mL
Peptide concentration after 180 min (DMF 25.5% w/w, pH 8.0, RT): >4.0 mg/mL
Peptide concentration after 5 min (DMF 25.5% w/w, pH 8.5, RT): 1.9 mg/mL
Peptide concentration after 180 min (DMF 25.5% w/w, pH 8.5, RT): >4.0 mg/mL
Peptide concentration after 5 min (DMF 25.5% w/w, pH 9.0, RT): 1.3 mg/mL
Peptide concentration after 180 min (DMF 25.5% w/w, pH 9.0, RT): >4.0 mg/mL
Peptide concentration after 5 min (DMF 25.5% w/w, pH 9.5, RT): 3.1 mg/mL
Peptide concentration after 180 min (DMF 25.5% w/w, pH 9.5, RT): >4.0 mg/mL
Peptide concentration after 5 min (DMF 25.5% w/w, pH 10.0, RT): 3.2 mg/mL
Peptide concentration after 180 min (DMF 25.5% w/w, pH 10.0, RT): >4.0 mg/mL
Peptide concentration after 5 min (DMF 25.5% w/w, pH 10.5, RT): 2.9 mg/mL
Peptide concentration after 180 min (DMF 25.5% w/w, pH 10.5, RT): >4.0 mg/mL
Peptide concentration after 5 min (DMF 25.5% w/w, pH 11.0, RT): 2.0 mg/mL
Peptide concentration after 180 min (DMF 25.5% w/w, pH 11.0, RT): >4.0 mg/mL
Peptide concentration after 5 min (DMF 31.8% w/w, pH 3.1, RT): 0.2 mg/mL
Peptide concentration after 180 min (DMF 31.8% w/w, pH 3.1, RT): 0.2 mg/mL
Peptide concentration after 24 h (DMF 31.8% w/w, pH 3.1, RT): 0.6 mg/mL
Peptide concentration after 5 min (DMF 31.8% w/w, pH 4.8, RT): 0.2 mg/mL
Peptide concentration after 180 min (DMF 31.8% w/w, pH 4.8, RT): 0.3 mg/mL
Peptide concentration after 24 h (DMF 31.8% w/w, pH 4.8, RT): 0.3 mg/mL
Peptide concentration after 5 min (DMF 31.8% w/w, pH 5.8, RT): 0.3 mg/mL
Peptide concentration after 180 min (DMF 31.8% w/w, pH 5.8, RT): 1.1 mg/mL
Peptide concentration after 24 h (DMF 31.8% w/w, pH 5.8, RT): 0.8 mg/mL
Peptide concentration after 5 min (DMF 31.8% w/w, pH 6.3, RT): 0.5 mg/mL
Peptide concentration after 180 min (DMF 31.8% w/w, pH 6.3, RT): 0.9 mg/mL
Peptide concentration after 24 h (DMF 31.8% w/w, pH 6.3, RT): 2.6 mg/mL
Peptide concentration after 5 min (DMF 31.8% w/w, pH 6.7, RT): 0.6 mg/mL
Peptide concentration after 180 min (DMF 31.8% w/w, pH 6.7, RT): 1.4 mg/mL
Peptide concentration after 24 h (DMF 31.8% w/w, pH 6.7, RT): 2.0 mg/mL
Peptide concentration after 5 min (DMF 31.8% w/w, pH 6.9, RT): 0.9 mg/mL
Peptide concentration after 180 min (DMF 31.8% w/w, pH 6.9, RT): 1.8 mg/mL
Structure (SMILES): CCCCCCCCCCCCCCCC(=O)N[C@@H](CCC(=O)NCCCC[C@H](NC(=O)[C@H](C)NC(=O)[C@H](C)NC(=O)[C@H](CCC(N)=O)NC(=O)CNC(=O)[C@H](CCC(=O)O)NC(=O)[C@H](CC(C)C)NC(=O)[C@H](Cc1ccc(O)cc1)NC(=O)[C@H](CO)NC(=O)[C@H](CO)NC(=O)[C@@H](NC(=O)[C@H](CC(=O)O)NC(=O)[C@H](CO)NC(=O)[C@@H](NC(=O)[C@H](Cc1ccccc1)NC(=O)[C@@H](NC(=O)CNC(=O)[C@H](CCC(=O)O)NC(=O)[C@H](C)NC(=O)[C@@H](N)Cc1cnc[nH]1)[C@@H](C)O)[C@@H](C)O)C(C)C)C(=O)N[C@@H](CCC(=O)O)C(=O)N[C@@H](Cc1ccccc1)C(=O)N[C@H](C(=O)N[C@@H](C)C(=O)N[C@@H](Cc1c[nH]c2ccccc12)C(=O)N[C@@H](CC(C)C)C(=O)N[C@H](C(=O)N[C@@H](CCCNC(=N)N)C(=O)NCC(=O)N[C@@H](CCCNC(=N)N)C(=O)NCC(=O)O)C(C)C)[C@@H](C)CC)C(=O)O [liraglutide, Arg34,Lys26-(N-epsilon-(gamma-L-glutamyl(N-alfa-hexadecanoyl)))-GLP-1(7-37)]
